PubChem BioAssay AID720505, Drosophila RNAi Screening Center | 2013
The screen tested about 20,000 reagents; shown is a random part of those that have a named target and a result. Of all reagents, about 2,100 (10%) are marked active. 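Raw plate signals without normalisation; calls rest on control-based scores that were not deposited; replicate 2 separates called from uncalled poorly.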 Not stated in the record: the amount of reagent, the time to read-out.

Aim: 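Knock-downs that reduce calcium influx once internal stores are emptied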 (primary screen)
Cells: Drosophila S2R+ cells
Reagent: long dsRNA against Drosophila genes
Treatment: thapsigargin (2 µM) in calcium-free buffer to empty internal stores, then 2 mM calcium added back
Measurement: 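Stores emptied by 2 µM thapsigargin without calcium, then 2 mM calcium re-added; fluo-4 fluorescence followed by FLIPR in 384-well plates, per-well averaged endpoint, raw; two screen passes, some wells retested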
Reading the numbers: calcium signal: higher = more calcium entry after store depletion
Call rule: 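About 1500 genes called as lowering calcium entry, by varying amounts, judged against per-plate control wells with STIM1 as positive and Rho1 as negative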
Calls: active = called as lowering calcium entry; inactive = not called

CG13833 (GeneID 42718) [DRSC14683] gave calcium signal, replicate 1 = 189; calcium signal, replicate 2 = 148; inactive. CG31848 (GeneID 318980) [DRSC01309] showed calcium signal, replicate 1 = 277; calcium signal, replicate 2 = 188; inactive. With knock-down of CG15739 (GeneID 32146) [DRSC19705], the screen gave calcium signal, replicate 1 = 124; calcium signal, replicate 2 = 95.6; inactive. With knock-down of CG11837 (GeneID 43429) [DRSC14397], the screen gave calcium signal, replicate 1 = 60; calcium signal, replicate 2 = 87.1; active. Knock-down of CG32687 (GeneID 31980) [DRSC18210] came out at: calcium signal, replicate 1 = 88; calcium signal, replicate 2 = 126; inactive. For CG32687 (GeneID 31980) [DRSC18237], the entry reads calcium signal, replicate 1 = 73.7; calcium signal, replicate 2 = 133; inactive.

Against AhcyL1 (GeneID 38342) [DRSC08647] the deposit lists calcium signal, replicate 1 = 78; calcium signal, replicate 2 = 91.8; inactive.

2 entries from above, sorted by “calcium signal, replicate 1”, highest first.
AhcyL1 (GeneID 38342) [DRSC08647] — calcium signal, replicate 1: 78; calcium signal, replicate 2: 91.8; Call: inactive
CG32687 (GeneID 31980) [DRSC18237] — calcium signal, replicate 1: 73.7; calcium signal, replicate 2: 133; Call: inactive

The list goes on.
For Cdlc2 (GeneID 33319) [DRSC00743], the values are calcium signal, replicate 1 = 170; calcium signal, replicate 2 = 324; inactive. For CG10051 (GeneID 37222) [DRSC05959] the deposit lists calcium signal, replicate 1 = 138; calcium signal, replicate 2 = 94.2; inactive. With knock-down of tapas (GeneID 37304) [DRSC05950], the screen gave calcium signal, replicate 1 = 134; calcium signal, replicate 2 = 117; inactive. Against CG33462 (GeneID 2768841) [DRSC22902], the values are calcium signal, replicate 1 = 126; calcium signal, replicate 2 = 148; inactive. Oatp30B (GeneID 34268) [DRSC02727] scored calcium signal, replicate 1 = 71.5; calcium signal, replicate 2 = 86.3; inactive.
